# Shown are survivors of the treated group in tumour-free mice. Counts of survivors are from the toxicity check (mostly the fifth day) where no day follows; animals may have died later. Schedule codes are those of the source, taken here to give the interval after Q, in days (D) or hours (H), and the number of doses after X. Some entries were tested several times; the values are given in rising order.
# Tested on: CD2F1 mice, nontumored, toxicity/survival
# Test: NCI In Vivo Anticancer Drug Screen. Data for tumor model Nontumored Animals (Toxicity Test) in CD2F1 (CDF1) mice
structure (smiles),measurement,setting,value
CN(Cc1cnc2nc(N)nc(N)c2n1)c1ccc(C(=O)N[C@@H](CCC(=O)O)C(=O)O)cc1,survivor count,"dose: 0.06 mg/kg/injection, schedule: Q01DX009 (ip), vehicle: sodium bicarbonate",8 of 8
same,survivor count,"dose: 0.13 mg/kg/injection, schedule: Q01DX009 (ip), vehicle: saline",8 of 8
same,survivor count,"dose: 0.13 mg/kg/injection, schedule: Q01DX009 (ip), vehicle: sodium bicarbonate",8 of 8
same,survivor count,"dose: 0.13 mg/kg/injection, schedule: Q03HX024 (ip), vehicle: saline",8 of 8
same,survivor count,"dose: 0.25 mg/kg/injection, schedule: Q01DX009 (ip), vehicle: saline",8 of 8
same,survivor count,"dose: 0.25 mg/kg/injection, schedule: Q01DX009 (ip), vehicle: sodium bicarbonate",8 of 8
same,survivor count,"dose: 0.25 mg/kg/injection, schedule: Q03HX008 (ip), vehicle: saline",8 of 8
same,survivor count,"dose: 0.25 mg/kg/injection, schedule: Q03HX016 (ip), vehicle: saline",8 of 8
same,survivor count,"dose: 0.25 mg/kg/injection, schedule: Q03HX024 (ip), vehicle: saline",8 of 8
same,survivor count,"dose: 0.5 mg/kg/injection, schedule: Q01DX009 (ip), vehicle: saline",8 of 8
same,survivor count,"dose: 0.5 mg/kg/injection, schedule: Q01DX009 (ip), vehicle: sodium bicarbonate",8 of 8
same,survivor count,"dose: 0.5 mg/kg/injection, schedule: Q03HX008 (ip), vehicle: saline",8 of 8
same,survivor count,"dose: 0.5 mg/kg/injection, schedule: Q03HX016 (ip), vehicle: saline",3 of 8
same,survivor count,"dose: 0.5 mg/kg/injection, schedule: Q03HX024 (ip), vehicle: saline",8 of 8
same,survivor count,"dose: 0.75 mg/kg/injection, schedule: Q01DX009 (ip), vehicle: sodium bicarbonate",4 of 4
same,survivor count,"dose: 0.9 mg/kg/injection, schedule: Q01DX009 (ip), vehicle: sodium bicarbonate",10 of 10
same,survivor count,"dose: 1.0 mg/kg/injection, schedule: Q01DX009 (ip), vehicle: saline",8 of 8
same,survivor count,"dose: 1.0 mg/kg/injection, schedule: Q01DX009 (ip), vehicle: sodium bicarbonate",4 of 4 and 8 of 8
same,survivor count,"dose: 1.0 mg/kg/injection, schedule: Q03HX008 (ip), vehicle: saline",3 of 8
same,survivor count,"dose: 1.0 mg/kg/injection, schedule: Q03HX016 (ip), vehicle: saline",1 of 8
same,survivor count,"dose: 1.0 mg/kg/injection, schedule: Q03HX024 (ip), vehicle: saline",8 of 8
same,survivor count,"dose: 1.3 mg/kg/injection, schedule: Q01DX009 (ip), vehicle: sodium bicarbonate",10 of 10
same,survivor count,"dose: 1.5 mg/kg/injection, schedule: Q01DX009 (ip), vehicle: sodium bicarbonate",4 of 4
same,survivor count,"dose: 2.0 mg/kg/injection, schedule: Q01DX009 (ip), vehicle: saline",8 of 8
same,survivor count,"dose: 2.0 mg/kg/injection, schedule: Q01DX009 (ip), vehicle: sodium bicarbonate","2 of 3, 10 of 10, 8 of 8"
same,survivor count,"dose: 2.0 mg/kg/injection, schedule: Q03HX008 (ip), vehicle: saline",4 of 8
same,survivor count,"dose: 2.0 mg/kg/injection, schedule: Q03HX016 (ip), vehicle: saline",1 of 8
same,survivor count,"dose: 3.0 mg/kg/injection, schedule: Q01DX009 (ip), vehicle: sodium bicarbonate",10 of 10 and 4 of 4
same,survivor count,"dose: 3.5 mg/kg/injection, schedule: Q01DX009 (ip), vehicle: sodium bicarbonate",10 of 10 and 9 of 9
same,survivor count,"dose: 4.0 mg/kg/injection, schedule: Q01DX009 (ip), vehicle: saline",7 of 8
same,survivor count,"dose: 4.0 mg/kg/injection, schedule: Q01DX009 (ip), vehicle: sodium bicarbonate",4 of 4 and 8 of 8
same,survivor count,"dose: 4.0 mg/kg/injection, schedule: Q04DX003 (ip), vehicle: saline",8 of 8
same,survivor count,"dose: 5.0 mg/kg/injection, schedule: Q04DX003 (ip), vehicle: sodium bicarbonate",4 of 4
same,survivor count,"dose: 5.4 mg/kg/injection, schedule: Q04DX002 (ip), vehicle: sodium bicarbonate",4 of 4
same,survivor count,"dose: 5.4 mg/kg/injection, schedule: Q04DX003 (ip), vehicle: sodium bicarbonate",4 of 4
same,survivor count,"dose: 6.0 mg/kg/injection, schedule: Q01DX009 (ip), vehicle: sodium bicarbonate",0 of 2
same,survivor count,"dose: 8.0 mg/kg/injection, schedule: Q01DX001 (ip), vehicle: saline",8 of 8
same,survivor count,"dose: 8.0 mg/kg/injection, schedule: Q01DX009 (ip), vehicle: sodium bicarbonate",4 of 4 and 8 of 8
same,survivor count,"dose: 8.0 mg/kg/injection, schedule: Q04DX003 (ip), vehicle: saline",8 of 8
same,survivor count,"dose: 8.0 mg/kg/injection, schedule: Q08DX002 (ip), vehicle: saline",8 of 8
same,survivor count,"dose: 9.0 mg/kg/injection, schedule: Q04DX002 (ip), vehicle: sodium bicarbonate",4 of 4
same,survivor count,"dose: 9.0 mg/kg/injection, schedule: Q04DX003 (ip), vehicle: sodium bicarbonate",4 of 4 and 5 of 5
same,survivor count,"dose: 10.0 mg/kg/injection, schedule: Q04DX003 (ip), vehicle: sodium bicarbonate",4 of 4
same,survivor count,"dose: 14.4 mg/kg/injection, schedule: Q01DX001 (ip), vehicle: sodium bicarbonate",4 of 4
same,survivor count,"dose: 15.0 mg/kg/injection, schedule: Q04DX002 (ip), vehicle: sodium bicarbonate",4 of 4
same,survivor count,"dose: 15.0 mg/kg/injection, schedule: Q04DX003 (ip), vehicle: sodium bicarbonate",4 of 4 and 5 of 5
same,survivor count,"dose: 16.0 mg/kg/injection, schedule: Q01DX001 (ip), vehicle: saline",6 of 8
same,survivor count,"dose: 16.0 mg/kg/injection, schedule: Q04DX003 (ip), vehicle: saline",8 of 8
same,survivor count,"dose: 16.0 mg/kg/injection, schedule: Q08DX002 (ip), vehicle: saline",7 of 8
same,survivor count,"dose: 20.0 mg/kg/injection, schedule: Q04DX003 (ip), vehicle: sodium bicarbonate",4 of 4
same,survivor count,"dose: 24.0 mg/kg/injection, schedule: Q01DX001 (ip), vehicle: sodium bicarbonate",4 of 4
same,survivor count,"dose: 25.0 mg/kg/injection, schedule: Q04DX002 (ip), vehicle: sodium bicarbonate",4 of 4
same,survivor count,"dose: 25.0 mg/kg/injection, schedule: Q04DX003 (ip), vehicle: sodium bicarbonate",4 of 4 and 5 of 5
same,survivor count,"dose: 30.0 mg/kg/injection, schedule: Q01DX001 (ip), vehicle: sodium bicarbonate",4 of 4
same,survivor count,"dose: 32.0 mg/kg/injection, schedule: Q01DX001 (ip), vehicle: saline",6 of 8
same,survivor count,"dose: 32.0 mg/kg/injection, schedule: Q04DX003 (ip), vehicle: saline",6 of 8 and 8 of 8
same,survivor count,"dose: 32.0 mg/kg/injection, schedule: Q08DX002 (ip), vehicle: saline",7 of 8
same,survivor count,"dose: 40.0 mg/kg/injection, schedule: Q01DX001 (ip), vehicle: sodium bicarbonate",4 of 4
same,survivor count,"dose: 40.0 mg/kg/injection, schedule: Q04DX003 (ip), vehicle: sodium bicarbonate",4 of 4
same,survivor count,"dose: 41.6 mg/kg/injection, schedule: Q04DX003 (ip), vehicle: sodium bicarbonate",2 of 3
same,survivor count,"dose: 41.7 mg/kg/injection, schedule: Q04DX003 (ip), vehicle: sodium bicarbonate",5 of 5
same,survivor count,"dose: 43.0 mg/kg/injection, schedule: Q01DX001 (ip), vehicle: sodium bicarbonate",4 of 4
same,survivor count,"dose: 60.0 mg/kg/injection, schedule: Q01DX001 (ip), vehicle: sodium bicarbonate",4 of 4
same,survivor count,"dose: 64.0 mg/kg/injection, schedule: Q01DX001 (ip), vehicle: saline",5 of 8 and 6 of 8
same,survivor count,"dose: 64.0 mg/kg/injection, schedule: Q04DX003 (ip), vehicle: saline",6 of 8 and 8 of 8
same,survivor count,"dose: 64.0 mg/kg/injection, schedule: Q08DX002 (ip), vehicle: saline",3 of 8 and 6 of 8
same,survivor count,"dose: 66.7 mg/kg/injection, schedule: Q01DX001 (ip), vehicle: sodium bicarbonate",4 of 4
same,survivor count,"dose: 67.0 mg/kg/injection, schedule: Q01DX001 (ip), vehicle: sodium bicarbonate",4 of 4
same,survivor count,"dose: 72.0 mg/kg/injection, schedule: Q01DX001 (ip), vehicle: sodium bicarbonate",2 of 3 and 4 of 4
same,survivor count,"dose: 112.0 mg/kg/injection, schedule: Q01DX001 (ip), vehicle: sodium bicarbonate",4 of 4
same,survivor count,"dose: 120.0 mg/kg/injection, schedule: Q01DX001 (ip), vehicle: sodium bicarbonate",4 of 4
same,survivor count,"dose: 128.0 mg/kg/injection, schedule: Q01DX001 (ip), vehicle: saline",0 of 8 and 5 of 8
same,survivor count,"dose: 128.0 mg/kg/injection, schedule: Q04DX003 (ip), vehicle: saline",3 of 8
same,survivor count,"dose: 128.0 mg/kg/injection, schedule: Q08DX002 (ip), vehicle: saline",0 of 8 and 3 of 8
same,survivor count,"dose: 200.0 mg/kg/injection, schedule: Q01DX001 (ip), vehicle: sodium bicarbonate",2 of 3 and 4 of 4
same,survivor count,"dose: 240.0 mg/kg/injection, schedule: Q01DX001 (ip), vehicle: sodium bicarbonate",2 of 3
same,survivor count,"dose: 256.0 mg/kg/injection, schedule: Q01DX001 (ip), vehicle: saline",2 of 8
same,survivor count,"dose: 256.0 mg/kg/injection, schedule: Q08DX002 (ip), vehicle: saline",3 of 8
same,survivor count,"dose: 512.0 mg/kg/injection, schedule: Q01DX001 (ip), vehicle: saline",1 of 8
same,survivor count,"dose: 512.0 mg/kg/injection, schedule: Q08DX002 (ip), vehicle: saline",2 of 8

# Source: PubChem BioAssay AID188 (DTP/NCI, 2004)
